# Measurements as given in PubChem BioAssay (NCATS).
# This list was built around the results that the source calls inconclusive (neither active nor inactive); the mix of calls is not that of the screen. Where the call is inconclusive, the potency comes from a doubtful curve fit. Calls of active or inactive are those of the source. Unless noted, calls come from the whole dose curve; as a rule, active = well fitted curve in the direction sought with a large enough effect; inconclusive = small, poorly fitted or top-dose-only effect, or another doubt; inactive = no such curve, though single readings can be large; an effect the other way counts as inactive or inconclusive.
# Assay: qHTS for inhibitors of ER calcium dysfunction: SERCaMP assay screened against the NCATS CANVASS Library (AID 1347393); note: nearly all actives have a fitted effect of over 40% in size; note: potency is the fitted concentration of half-maximal effect;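 for activity change, negative = inhibition: % is set by controls: 0 for no effect and ±100 for the full control effect; lower secreted reporter signal means inhibitor of ER calcium depletion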
# Details: SH-SY5Y GLuc-SERCaMP (Gaussia luciferase released on ER calcium loss) secretion, thapsigargin, luminescence; series mostly up to 76.6 µM; activity change, negative = inhibition: at the top concentration
# Procedure, shortened: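 qHTS in SH-SY5Y reporter cells: 16 h compound pretreatment, 4 h thapsigargin, then secreted Gaussia luciferase measured by luminescence.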
SMILES,Potency,"activity change, negative = inhibition"
CN1C(=O)[C@]23CC4C(C)(C)[C@@]5(C[C@@]41CN2CC[C@@]3(C)O)C(=O)Nc1c5ccc2c1OC=CC(C)(C)O2 (stereo partly drawn),"inconclusive: 3.84 µM [inhibitor, full curve]",–
CN(C)CCc1c[nH]c2ccccc12,–,inactive: -11.1%
NCCc1ccc(O)cc1,"inconclusive: 70.4 µM [inhibitor, partial curve, poor fit]",–

# Assay: qHTS for inhibitors of Rabies Virus screened against the NCATS CANVASS Library (AID 1347402; calls by dose curve; for activity change, negative = inhibition: 0% is about no effect)
# Details: Rabies virus infection cell assay; series mostly up to 91 µM; activity change, negative = inhibition: at the top concentration
SMILES,"activity change, negative = inhibition",Potency
C/C=C1/CN2CC[C@]34C(=Nc5ccccc53)[C@@H]2C[C@@H]1[C@H]4C(=O)OC,inactive: -4.66%,–
CN1C(=O)[C@]23CC4C(C)(C)[C@@]5(C[C@@]41CN2CC[C@@]3(C)O)C(=O)Nc1c5ccc2c1OC=CC(C)(C)O2 (stereo partly drawn),inactive: -13.2% [at 45.9 µM],–
NCCc1ccc(O)cc1,–,"inconclusive: 42.7 µM [inhibitor, single point]"

# Assay: qHTS to identify inhibitors of the type 1 interferon - major histocompatibility complex class I in skeletal muscle: primary screen against the NCATS LOPAC collection (AID 1347405);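 note: lytic HiBiT luminescence reporting HLA-B protein level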; note: potency is the fitted concentration of half-maximal effect; for activity change, negative = inhibition: % is set by controls: 0 for no effect and ±100 for the full control effect
# Details: iHSKM muscle cells, IFN-b-induced MHC-I HiBiT luminescence, 24 h; series mostly up to 45.9 µM; activity change, negative = inhibition: at the top concentration
# Procedure, shortened: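 HLA-B HiBiT myoblasts, IFN-b 4 ng/ml, dexamethasone-free medium; compounds 7-pt 1:4.3 titration, top 46 uM final; 24 h at 37 C; Nano-Glo HiBiT lytic reagent, 10 min RT, luminescence.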
SMILES,Potency,"activity change, negative = inhibition"
O=c1[nH]c2ccccc2n1CCCN1CCC(n2c(=O)[nH]c3cc(Cl)ccc32)CC1,"inconclusive: 39.8 µM [inhibitor, single point]",–
c1ccc(CCCN2CCN(CCOC(c3ccccc3)c3ccccc3)CC2)cc1,"inconclusive: 35.5 µM [inhibitor, single point]",–
Cc1cccc(C)c1NC1=NCCCS1,–,inactive: -6.75%
COC[C@H]1OC(=O)c2coc3c2[C@@]1(C)C1=C(C3=O)C2CCC(=O)[C@@]2(C)C[C@H]1OC(C)=O (stereo partly drawn),"inconclusive: 5.01 µM [inhibitor, partial curve, poor fit]",–
CN1CCC[C@@H]1Cc1c[nH]c2ccc(Nc3ncccc3[N+](=O)[O-])cc12,"inconclusive: 25.1 µM [inhibitor, single point]",–
C[C@@H]1O[C@@H](O[C@H]2C[C@@H](O)[C@]3(CO)[C@H]4[C@H](O)C[C@]5(C)[C@@H](C6=CC(=O)OC6)CC[C@]5(O)[C@@H]4CC[C@]3(O)C2)[C@H](O)[C@H](O)[C@H]1O,active: 0.0447 µM,–
CCCN1CCC[C@@H]2Cc3nc(N)ncc3C[C@H]21,–,inactive: -13.6%
O=c1[nH]c2ccccc2n1C1CCN(CCCC(c2ccc(F)cc2)c2ccc(F)cc2)CC1,"inconclusive: 35.5 µM [inhibitor, single point]",–
Fc1ccc(C(OCCN2CCN(CCCc3ccccc3)CC2)c2ccc(F)cc2)cc1,"inconclusive: 39.8 µM [inhibitor, single point]",–
CN(N=O)c1cc(O)ccc1O,"inconclusive: 25.1 µM [inhibitor, partial curve, poor fit]",–
c1ccc2c(c1)OCC(C1=NCCN1)O2 (stereo not drawn),"inconclusive: 17.8 µM [inhibitor, partial curve, poor fit]",–
CN[C@@H]1C[C@@H](c2ccc(Cl)c(Cl)c2)c2ccccc21,"inconclusive: 20 µM [inhibitor, partial curve, poor fit]",–
COc1ccc2c(c[n+](C)c3c4cc5c(cc4ccc23)OCO5)c1OC,"inconclusive: 4.47 µM [inhibitor, full curve, poor fit]",–
Cc1cccc(C)c1NC(=O)CN1CCCC1=O,–,inactive: 2.08%
CC[C@@]1(O)C(=O)OCc2c1cc1n(c2=O)Cc2cc3ccccc3nc2-1,active: 0.708 µM,–

# Single entries from the entries so far:
# Potency, `c1ccc(CCCN2CCN(CCOC(c3ccccc3)c3ccccc3)CC2)cc1` reads inconclusive: 35.5 µM [inhibitor, single point]
# Potency, `CN(N=O)c1cc(O)ccc1O` reads inconclusive: 25.1 µM [inhibitor, partial curve, poor fit]

# Assay: qHTS to identify inhibitors of the type 1 interferon - major histocompatibility complex class I in skeletal muscle: primary screen against the NCATS Pharmaceutical Collection (AID 1347407);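 note: luminescence of HiBiT knocked into endogenous HLA-B as interferon-induced MHC class I level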; note: potency is the fitted concentration of half-maximal effect; for activity change, negative = inhibition: % is set by controls: 0 for no effect and ±100 for the full control effect
# Details: human skeletal muscle cells, IFN-b-induced MHC-I HiBiT luminescence, 24 h; activity change, negative = inhibition: at 45.9 µM (top of the series) unless noted
# Procedure, shortened: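 Immortalized human myoblasts (C25cl48) with HiBiT knocked into endogenous HLA-B*08:01 were stimulated with 4.0 ng/ml IFN-beta and treated with compounds ([…] top 46 uM) for 24 hrs at 37 C. HiBiT lytic luminescence read.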
SMILES,"activity change, negative = inhibition",Potency
CC[C@H]1C[C@H]2[C@@H]3CCC4=CC(=O)CC[C@@H]4[C@H]3CC[C@]2(C)[C@H]1O,inactive: -11.9%,–
CC1N=C(N)OC1c1ccccc1 (stereo not drawn),–,"inconclusive: 66.5 µM [inhibitor, single point]"
C[C@@H]1O[C@@H](O[C@H]2C[C@@H](O)[C@]3(CO)[C@H]4[C@H](O)C[C@]5(C)[C@@H](C6=CC(=O)OC6)CC[C@]5(O)[C@@H]4CC[C@]3(O)C2)[C@H](O)[C@H](O)[C@H]1O,–,active: 0.0528 µM
COc1cc(N)c(Cl)cc1C(=O)NC1CN2CCC1CC2 (stereo not drawn),inactive: -0.546%,–
CC#C[C@]1(O)CC[C@H]2[C@@H]3C[C@H](C)C4=CC(=O)CC[C@]4(C)[C@H]3CC[C@@]21C,–,"inconclusive: 13.3 µM [inhibitor, partial curve, poor fit]"
O=c1[nH]c2ccccc2n1C1CCN(CCCC(c2ccc(F)cc2)c2ccc(F)cc2)CC1,–,"inconclusive: 26.4 µM [inhibitor, single point]"
Fc1ccc(C(OCCN2CCN(CCCc3ccccc3)CC2)c2ccc(F)cc2)cc1,–,"inconclusive: 21 µM [inhibitor, single point]"
CCNc1nc(Cl)nc(NCC)n1,inactive: -2.39%,–
COP(=S)(OC)Oc1cc(Cl)c(Cl)cc1Cl,–,"inconclusive: 10.5 µM [inhibitor, partial curve]"
CC(C)c1c(CN(C)C(C)Cc2ccccc2)n(C)n(-c2ccccc2)c1=O (stereo not drawn),inactive: -3.56%,–
c1ccc2c(c1)Sc1ccccc1N2CC1CN2CCC1CC2 (stereo not drawn),–,"inconclusive: 23.6 µM [inhibitor, single point]"
Nc1ccc(Cl)cc1C(=O)c1ccccc1F,inactive: 1.81%,–
COP(=S)(OC)Oc1ccc(SC)c(C)c1,inactive: -14%,–
CC[C@]1(O)CC[C@H]2[C@@H]3CCC4=CCCC[C@@H]4[C@H]3CC[C@@]21C,–,"inconclusive: 33.3 µM [inhibitor, single point]"
C[N+]1(C)[C@@H]2CC[C@H]1CC(OC(=O)C(CO)c1ccccc1)C2 (stereo partly drawn),inactive: -1.1%,–
CCC(COC(=O)c1cc(OC)c(OC)c(OC)c1)(c1ccccc1)N(C)C (stereo not drawn),inactive: 1.42%,–
CN1CC[C@]23c4c5ccc(O)c4O[C@H]2[C@@H](O)C=C[C@H]3[C@H]1C5,–,"inconclusive: 67.2 µM [inhibitor, single point]"
